Measured values reported in the supplement of paper PMC5393889.
The other results are listed elsewhere or left out.

Tested on: Caenorhabditis elegans N2
Experiment: aldicarb interaction hit call (worm growth perturbed in combination with 10 uM aldicarb in both replicates, no effect as single agent) (binary (1 = interacts)); higher = interacts with aldicarb (growth perturbed)
Conditions: first compound 1.5 µM; aldicarb concentration 10 µM; 6 days; 20 °C

Structure (SMILES)	aldicarb interaction hit call
O=C(NCCc1ccc(F)cc1)Nc1ccc([N+](=O)[O-])cc1 [wact-82] + CNC(=O)O/N=C/C(C)(C)SC [aldicarb]	inactive: 0
O=[N+]([O-])c1ccc(N2CCN(S(=O)(=O)c3ccc(F)cc3)CC2)cc1NC1CC1 [wact-73] + CNC(=O)O/N=C/C(C)(C)SC [aldicarb]	inactive: 0
Brc1ccc(-c2noc(-c3ccccc3)n2)cc1 [wact-184] + CNC(=O)O/N=C/C(C)(C)SC [aldicarb]	inactive: 0
O=C(NCC1CC1)c1sc2cc(Cl)ccc2c1Cl [wact-123] + CNC(=O)O/N=C/C(C)(C)SC [aldicarb]	inactive: 0
COc1ccc(/C=C/C(=O)/C=C/c2ccccc2)cc1 [wact-426] + CNC(=O)O/N=C/C(C)(C)SC [aldicarb]	inactive: 0
COc1cc2c(cc1CNC1CCCN(c3ccc(C(F)(F)F)cn3)C1)OCO2 (configuration not stated) [wact-288] + CNC(=O)O/N=C/C(C)(C)SC [aldicarb]	inactive: 0
O=C(Nc1ccc(I)cc1)c1ccco1 [wact-27] + CNC(=O)O/N=C/C(C)(C)SC [aldicarb]	inactive: 0
CCCCNC(=O)c1ccccc1I [wact-52] + CNC(=O)O/N=C/C(C)(C)SC [aldicarb]	inactive: 0
CN(Cc1ccccc1)CC(O)COc1ccc(CNCc2ccc(Cl)cc2)cc1 (configuration not stated) [wact-283] + CNC(=O)O/N=C/C(C)(C)SC [aldicarb]	inactive: 0
COc1cc(C2NC(=S)NC(c3ccccc3)=C2C(C)=O)cc(Br)c1OC(C)C (configuration not stated) [wact-225] + CNC(=O)O/N=C/C(C)(C)SC [aldicarb]	inactive: 0
CCN(Cc1cccc2c1OCO2)CC1CCCN(CCc2cccc(F)c2)C1 (configuration not stated) [wact-332] + CNC(=O)O/N=C/C(C)(C)SC [aldicarb]	inactive: 0
CSc1ncc(CN2CCCC(CCC(=O)Nc3ccc(C(F)(F)F)cc3)C2)cn1 (configuration not stated) [wact-286] + CNC(=O)O/N=C/C(C)(C)SC [aldicarb]	inactive: 0
CCOc1ccc(/C=N/NC(=O)c2ccc(-c3ccccc3)cc2)cc1 [wact-397] + CNC(=O)O/N=C/C(C)(C)SC [aldicarb]	inactive: 0
CC(C)NCCCCOc1ccc(Cl)c(Cl)c1.O=C(O)C(=O)O [wact-68] + CNC(=O)O/N=C/C(C)(C)SC [aldicarb]	inactive: 0
Fc1ccccc1Nc1nc(-c2ccccc2)cs1 [wact-596] + CNC(=O)O/N=C/C(C)(C)SC [aldicarb]	inactive: 0
Fc1ccc(-c2cn3ccsc3n2)cc1 [wact-433] + CNC(=O)O/N=C/C(C)(C)SC [aldicarb]	inactive: 0
CCCC(=O)NC(=S)Nc1ccc(Cl)c(Cl)c1 [wact-370] + CNC(=O)O/N=C/C(C)(C)SC [aldicarb]	inactive: 0
c1ccc2c(-c3cnnc(N4CCN5CCCC5C4)n3)cccc2c1 (configuration not stated) [wact-278] + CNC(=O)O/N=C/C(C)(C)SC [aldicarb]	inactive: 0
Clc1ccc(N2CCN(N=Cc3cccnc3)CC2)cc1 [wact-598] + CNC(=O)O/N=C/C(C)(C)SC [aldicarb]	inactive: 0
c1ccc2nc(-c3nc4ccccc4o3)ccc2c1 [wact-40] + CNC(=O)O/N=C/C(C)(C)SC [aldicarb]	inactive: 0
c1coc(-c2nc(-c3cccs3)cs2)c1 [wact-203] + CNC(=O)O/N=C/C(C)(C)SC [aldicarb]	inactive: 0
Cl.Clc1ccc(-c2ccc(CNC3CC3)o2)c(Cl)c1 [wact-614] + CNC(=O)O/N=C/C(C)(C)SC [aldicarb]	inactive: 0
Fc1ccc(-c2cnc3ccccc3n2)cc1 [wact-457] + CNC(=O)O/N=C/C(C)(C)SC [aldicarb]	inactive: 0
CC(C)c1cc(Br)ccc1OCCCN1CCN(C)CC1.Cl [wact-149] + CNC(=O)O/N=C/C(C)(C)SC [aldicarb]	inactive: 0
CCOc1nnc(-c2ccccc2)c2ccccc12 [wact-25] + CNC(=O)O/N=C/C(C)(C)SC [aldicarb]	inactive: 0
O=C(Nc1cc(Cl)cc(Cl)c1)c1ccc(Cl)cc1 [wact-405] + CNC(=O)O/N=C/C(C)(C)SC [aldicarb]	active: 1
O=C(Nc1cccc(-c2cccc(F)c2)c1)C1CCN(CC2CC2)CC1 [wact-264] + CNC(=O)O/N=C/C(C)(C)SC [aldicarb]	inactive: 0

Quoted at random: two entries already listed.
Structure (SMILES)	aldicarb interaction hit call
CCOc1ccc(/C=N/NC(=O)c2ccc(-c3ccccc3)cc2)cc1 [wact-397] + CNC(=O)O/N=C/C(C)(C)SC [aldicarb]	inactive: 0
CCCC(=O)NC(=S)Nc1ccc(Cl)c(Cl)c1 [wact-370] + CNC(=O)O/N=C/C(C)(C)SC [aldicarb]	inactive: 0
